PubChem BioAssay AID1224828, NIAID | 2016
Aim: 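Knock-downs that increase or decrease LPS-induced p65 nuclear translocation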 (primary screen). System: mouse RAW264.7 G9 macrophage reporter cells (GFP-p65, Tnf promoter-mCherry). Reagents: siRNA pool against mouse genes, 100 nM. Timing: 2 days siRNA transfection, then 40 min LPS before fixation. Treatment: LPS (Salmonella minnesota R595) at 10 ng/ml. Measured: 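Microscopy ratio of nuclear to perinuclear-ring GFP-p65 signal, scaled to the plate median; gene score is the average of two replicate robust z-scores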. Direction: p65 translocation robust z-score: higher = more nuclear NF-kappaB p65 after LPS than the plate median; nuclear/cytoplasmic p65 ratio: higher = more nuclear NF-kappaB p65. Rule for the call: 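Called active when z exceeds 3.3 or falls under -1.56 (median of Tlr4 controls), giving activity score of at least 50; no calls for control wells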. Calls: active = hit (p65 shift raised or lowered); inactive = no clear change.
The whole screen tested about 17,000 reagents; this is an unselected part. Of all reagents, 762 (4.5%) are marked active. 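Active calls include both raised and lowered p65 entry, mostly lowered; wells with fewer than 50 cells lack a z-score.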 Raw values are not corrected between plates. Entries without a mark were called inactive. The numbers tell different reagents against one gene apart.

| gene | pool no. | p65 translocation robust z-score | nuclear/cytoplasmic p65 ratio, rep 1 | nuclear/cytoplasmic p65 ratio, rep 2 | low cell count flag |
| --- | --- | --- | --- | --- | --- |
| Pvalb (parvalbumin) | 1 | -0.14 | 1.22 | 1.2 | enough cells to score |
| Agbl3 (ATP/GTP binding protein-like 3) | 1 | 2.72 | 1.79 | 1.93 | enough cells to score |
| Prxl2c (peroxiredoxin like 2C) | 1 | 0.5 | 1.57 | 1.64 | enough cells to score |
| Sgca (sarcoglycan, alpha (dystrophin-associated glycoprotein)) | 1 | -1.1 | 1.33 | 1.45 | enough cells to score |
| Porcn (porcupine O-acyltransferase) | 1 | 1.55 | 1.71 | 1.61 | enough cells to score |
| Malt1 (MALT1 paracaspase) | 1 | 0.48 | 1.71 | 1.44 | enough cells to score |
| Tafa2 (TAFA chemokine like family member 2) | 1 | -0.66 | 1.52 | 1.57 | enough cells to score |
| Drd5 (dopamine receptor D5) | 1 | – | 1.47 | 1.8 | fewer than 50 cells per well; well left out of scoring |
| Zfp317 (zinc finger protein 317) | 1 | -0.79 | 1.31 | 1.16 | enough cells to score |
| Prkag2 (protein kinase, AMP-activated, gamma 2 non-catalytic subunit) | 1 | 0.3 | 1.62 | 1.7 | enough cells to score |
| Kank3 (KN motif and ankyrin repeat domains 3) | 1 | 0.36 | 1.58 | 1.64 | enough cells to score |
| Ptpre (protein tyrosine phosphatase receptor type E) | 1 | 5.75 (active) | 1.52 | 3.09 | enough cells to score |
| Pdia3 (protein disulfide isomerase associated 3) | 1 | -0.55 | 1.33 | 1.34 | enough cells to score |
| Ttn (titin) | 1 | – | 1.92 | 1.42 | fewer than 50 cells per well; well left out of scoring |
| Ttn (titin) | 2 | – | 1.27 | 1.49 | fewer than 50 cells per well; well left out of scoring |
| Tlcd1 (TLC domain containing 1) | 1 | 1.03 | 1.56 | 1.71 | enough cells to score |
| Tmem121 (transmembrane protein 121) | 1 | -1.12 | 1.39 | 1.31 | enough cells to score |
| Imp3 (IMP3, U3 small nucleolar ribonucleoprotein) | 1 | – | 1.37 | 1.93 | fewer than 50 cells per well; well left out of scoring |
| B3galnt1 | 1 | 1.22 | 1.71 | 1.47 | enough cells to score |
| Sgsm1 (small G protein signaling modulator 1) | 1 | – | 1.43 | 1.16 | fewer than 50 cells per well; well left out of scoring |
| Cdh7 (cadherin 7, type 2) | 1 | -1.37 | 1.26 | 1.22 | enough cells to score |
| Serpinc1 | 1 | 0.34 | 1.57 | 1.63 | enough cells to score |
| Zfp2 (zinc finger protein 2) | 1 | -0.55 | 1.33 | 1.2 | enough cells to score |
| Mup5 (major urinary protein 5) | 1 | 0.29 | 1.86 | 1.61 | enough cells to score |
| Or10g9b (olfactory receptor family 10 subfamily G member 9B) | 1 | 0.21 | 1.48 | 1.26 | enough cells to score |
| Ppia (peptidylprolyl isomerase A) | 1 | -1.4 | 1.17 | 1.08 | enough cells to score |
| Rps23 (ribosomal protein S23) | 1 | – | 1.2 | 1.05 | fewer than 50 cells per well; well left out of scoring |
| Rgl1 (ral guanine nucleotide dissociation stimulator,-like 1) | 1 | – | 1.32 | 1.95 | fewer than 50 cells per well; well left out of scoring |
| Trdmt1 (tRNA aspartic acid methyltransferase 1) | 1 | 0.69 | 1.59 | 1.45 | enough cells to score |
| Cd300lb (CD300 molecule like family member B) | 1 | 0.97 | 1.56 | 1.5 | enough cells to score |
| Plp2 (proteolipid protein 2) | 1 | -1.11 | 1.27 | 1.06 | enough cells to score |
| Slc2a12 | 1 | – | 0 | 1.49 | fewer than 50 cells per well; well left out of scoring |
| Pde7a (phosphodiesterase 7A) | 1 | -0.31 | 1.4 | 1.38 | enough cells to score |
| Naa25 (N(alpha)-acetyltransferase 25, NatB auxiliary subunit) | 1 | -0.67 | 1.39 | 1.38 | enough cells to score |
| Thbd (thrombomodulin) | 1 | 0.03 | 1.53 | 1.52 | enough cells to score |
| Sema7a | 1 | – | 1.27 | 1.13 | fewer than 50 cells per well; well left out of scoring |
| Wdr6 (WD repeat domain 6) | 1 | -0.41 | 1.52 | 1.48 | enough cells to score |
| Eddm3b (epididymal protein 3B) | 1 | -0.36 | 1.59 | 1.55 | enough cells to score |
| Stx6 (syntaxin 6) | 1 | 0.41 | 1.46 | 1.29 | enough cells to score |
| Zfp764 (zinc finger protein 764) | 1 | -1.41 | 1.26 | 1.33 | enough cells to score |
| Prpf40b (pre-mRNA processing factor 40B) | 1 | 1.24 | 1.89 | 1.71 | enough cells to score |
| Gm4827 (predicted gene 4827) | 1 | 1.58 | 1.78 | 1.79 | enough cells to score |
| Slc43a3 | 1 | – | 1.57 | 1.36 | fewer than 50 cells per well; well left out of scoring |
| Dnase1l3 (deoxyribonuclease 1-like 3) | 1 | – | 1.32 | 1.31 | fewer than 50 cells per well; well left out of scoring |
| Ly6f (lymphocyte antigen 6 family member F) | 1 | 0.29 | 1.73 | 1.61 | enough cells to score |
| Sema4g | 1 | – | 1.6 | 1.28 | fewer than 50 cells per well; well left out of scoring |
| Or2m13 (olfactory receptor family 2 subfamily M member 13) | 1 | -1.37 | 1.37 | 1.28 | enough cells to score |
| Kdm6a (lysine (K)-specific demethylase 6A) | 1 | 1.42 | 1.58 | 1.38 | enough cells to score |
| Mtf1 (metal response element binding transcription factor 1) | 1 | 0.53 | 1.49 | 1.43 | enough cells to score |
| Or9m1b (olfactory receptor family 9 subfamily M member 1B) | 1 | -0.16 | 1.68 | 1.51 | enough cells to score |
| Reg1 (regenerating islet-derived 1) | 1 | -0.53 | 1.22 | 1.16 | enough cells to score |
| Sh3bp2 (SH3-domain binding protein 2) | 1 | -0.95 | 1.45 | 1.38 | enough cells to score |
| Setx (senataxin) | 1 | 1.49 | 1.72 | 1.83 | enough cells to score |
| Or51i2 (olfactory receptor family 51 subfamily I member 2) | 1 | -0.48 | 1.23 | 1.34 | enough cells to score |
| Tnp1 (transition protein 1) | 1 | -0.9 | 1.17 | 1.09 | enough cells to score |
| Fmo5 (flavin containing monooxygenase 5) | 1 | -0.26 | 1.34 | 1.36 | enough cells to score |
| Pf4 (platelet factor 4) | 1 | -0.56 | 1.49 | 1.7 | enough cells to score |
| Npvf (neuropeptide VF precursor) | 1 | 0.82 | 1.6 | 1.74 | enough cells to score |
| Nxt1 (NTF2-related export protein 1) | 1 | 1.27 | 1.62 | 1.57 | enough cells to score |
| Tpk1 (thiamine pyrophosphokinase) | 1 | – | 1.73 | 1.37 | fewer than 50 cells per well; well left out of scoring |
| Psmb8 | 1 | – | 1.44 | 1.34 | fewer than 50 cells per well; well left out of scoring |
| Ifih1 (interferon induced with helicase C domain 1) | 1 | -0.26 | 1.44 | 1.46 | enough cells to score |
| Hypk (huntingtin interacting protein K) | 1 | – | 1.15 | 1.25 | fewer than 50 cells per well; well left out of scoring |
| Oas1g (2'-5' oligoadenylate synthetase 1G) | 1 | 0.26 | 1.47 | 1.46 | enough cells to score |
| Vps54 (VPS54 GARP complex subunit) | 1 | -0.83 | 1.27 | 1.13 | enough cells to score |
| Bex1 (brain expressed X-linked 1) | 1 | 0.2 | 1.43 | 1.25 | enough cells to score |
| Eomes (eomesodermin) | 1 | -0.95 | 1.44 | 1.24 | enough cells to score |
| Ugt2b35 (UDP glucuronosyltransferase 2 family, polypeptide B35) | 1 | -1.25 | 1.37 | 1.62 | enough cells to score |
| Clip3 (CAP-GLY domain containing linker protein 3) | 1 | 1.32 | 1.84 | 1.78 | enough cells to score |
| Clec9a (C-type lectin domain family 9, member a) | 1 | -0.66 | 1.35 | 1.45 | enough cells to score |
| Zfp236 (zinc finger protein 236) | 1 | -0.45 | 1.36 | 1.19 | enough cells to score |
| Podxl2 (podocalyxin-like 2) | 1 | -0.02 | 1.61 | 1.74 | enough cells to score |
| Dhx32 (DEAH-box helicase 32 (putative)) | 1 | -0.24 | 1.56 | 1.48 | enough cells to score |
| Sfmbt1 (Scm-like with four mbt domains 1) | 1 | -0.47 | 1.33 | 1.21 | enough cells to score |
| Sfmbt1 (Scm-like with four mbt domains 1) | 2 | 1.28 | 1.58 | 1.75 | enough cells to score |

8 entries from above, reduced to “nuclear/cytoplasmic p65 ratio, rep 2”.
Ptpre (protein tyrosine phosphatase receptor type E)	3.09 (active)
Pdia3 (protein disulfide isomerase associated 3)	1.34
Ttn (titin) #1	1.42
Ttn (titin) #2	1.49
Tlcd1 (TLC domain containing 1)	1.71
Tmem121 (transmembrane protein 121)	1.31
Imp3 (IMP3, U3 small nucleolar ribonucleoprotein)	1.93
B3galnt1	1.47
